Measured data: PubChem BioAssay AID652243 (Drosophila RNAi Screening Center, 2013)
The screen tested about 24,000 reagents; below is a random part of those with a known target gene and a result. In the full data, 246 (1%) were called active. 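Plates not normalised; calls are printed but the firefly/Renilla ratio behind them is not deposited; fold cut for lowering reported inconsistently.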 Raw values vary from plate to plate and are shown uncorrected. No sequences are given here. Not stated in the record: the amount of reagent.

Assay: 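Knock-downs that decrease or increase androgen receptor reporter signal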 (primary screen)
System: Drosophila S2R+ cells
Reagents: long dsRNA against Drosophila genes
Time to read-out: 72 h (48 h, then 24 h hormone)
Challenge: synthetic androgen R1881 at 10 nM for 24 h
Read-out: 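Per-well raw luminescence of the androgen-driven firefly reporter and of the Renilla control, two replicates each, without normalisation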
Reading the numbers: firefly reporter light: higher = more light from androgen-responsive reporter; Renilla control light: higher = more constitutive control signal (cell number, transfection)
Call rule: 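Hit when the log firefly-to-Renilla ratio dropped or increased by a fixed fold versus the mean of GFP or LacZ controls across duplicate plates; lowering cut given as 1.5 and as 3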
Calls: active = hit: reporter lowered or raised; inactive = no hit

Silencing of CG31275 (GeneID 326131) [DRSC16919] came out at: firefly reporter light, replicate 1 = 1.72e5; firefly reporter light, replicate 2 = 2.06e5; Renilla control light, replicate 1 = 2.03e6; Renilla control light, replicate 2 = 1.90e6; inactive. Silencing of CG10494 (GeneID 37453) [DRSC04072] resulted in: firefly reporter light, replicate 1 = 1.03e6; firefly reporter light, replicate 2 = 1.11e6; Renilla control light, replicate 1 = 2.47e6; Renilla control light, replicate 2 = 2.35e6; inactive. CG10494 (GeneID 37453) [DRSC29883] scored firefly reporter light, replicate 1 = 5.64e5; firefly reporter light, replicate 2 = 2.68e5; Renilla control light, replicate 1 = 1.08e6; Renilla control light, replicate 2 = 5.93e5; inactive. Silencing of Efr (GeneID 31553) [DRSC18322] gave: firefly reporter light, replicate 1 = 3.62e5; firefly reporter light, replicate 2 = 3.06e5; Renilla control light, replicate 1 = 2.36e6; Renilla control light, replicate 2 = 2.30e6; inactive. Depletion of Efr (GeneID 31553) [DRSC26945] came out at: firefly reporter light, replicate 1 = 4.02e5; firefly reporter light, replicate 2 = 3.11e5; Renilla control light, replicate 1 = 9.95e5; Renilla control light, replicate 2 = 5.18e5; inactive. Knock-down of DCP1 (GeneID 37790) [DRSC04091] resulted in: firefly reporter light, replicate 1 = 9.04e5; firefly reporter light, replicate 2 = 7.73e5; Renilla control light, replicate 1 = 2.42e6; Renilla control light, replicate 2 = 2.68e6; inactive.

DCP1 (GeneID 37790) [DRSC29844] scored firefly reporter light, replicate 1 = 3.97e5; firefly reporter light, replicate 2 = 4.11e5; Renilla control light, replicate 1 = 7.18e5; Renilla control light, replicate 2 = 1.10e6; inactive. Silencing of CG17026 (GeneID 39739) [DRSC10237] came out at: firefly reporter light, replicate 1 = 5.11e5; firefly reporter light, replicate 2 = 6.82e5; Renilla control light, replicate 1 = 1.30e6; Renilla control light, replicate 2 = 1.65e6; inactive. CG17026 (GeneID 39739) [DRSC24059] scored firefly reporter light, replicate 1 = 1.06e6; firefly reporter light, replicate 2 = 8.88e5; Renilla control light, replicate 1 = 8.07e5; Renilla control light, replicate 2 = 9.09e5; inactive. For CG17026 (GeneID 39739) [DRSC39282], the entry reads inactive. Knock-down of RpL8 (GeneID 44251) [DRSC08532] resulted in: firefly reporter light, replicate 1 = 57264; firefly reporter light, replicate 2 = 55916; Renilla control light, replicate 1 = 6.87e5; Renilla control light, replicate 2 = 7.11e5; inactive. RpL8 (GeneID 44251) [DRSC08695] scored firefly reporter light, replicate 1 = 1.36e5; firefly reporter light, replicate 2 = 84366; Renilla control light, replicate 1 = 7.09e5; Renilla control light, replicate 2 = 8.51e5; inactive.

Silencing of RpL8 (GeneID 44251) [DRSC29905] came out at: firefly reporter light, replicate 1 = 3.69e5; firefly reporter light, replicate 2 = 3.51e5; Renilla control light, replicate 1 = 6.51e5; Renilla control light, replicate 2 = 7.89e5; inactive. With knock-down of CG17698 (GeneID 4379919) [DRSC11907], the record shows firefly reporter light, replicate 1 = 1.25e5; firefly reporter light, replicate 2 = 1.72e5; Renilla control light, replicate 1 = 2.67e6; Renilla control light, replicate 2 = 1.88e6; inactive. CG17698 (GeneID 4379919) [DRSC36965] showed inactive.

A few values from the entries so far:
For “firefly reporter light, replicate 2”, Efr (GeneID 31553) [DRSC26945] reads 3.11e5
CG31275 (GeneID 326131) [DRSC16919], firefly reporter light, replicate 2 = 2.06e5
